Reference: paper PMC8511627
These are yes or no findings as the source states them, for the method shown. In cells and extracts the contact can be indirect. Some results given as binding are weak or reduced against the parent protein; the word gives no strength.

By UniProt entry, the sequences of proteins in these tests, tags left out.
UniProt P27695: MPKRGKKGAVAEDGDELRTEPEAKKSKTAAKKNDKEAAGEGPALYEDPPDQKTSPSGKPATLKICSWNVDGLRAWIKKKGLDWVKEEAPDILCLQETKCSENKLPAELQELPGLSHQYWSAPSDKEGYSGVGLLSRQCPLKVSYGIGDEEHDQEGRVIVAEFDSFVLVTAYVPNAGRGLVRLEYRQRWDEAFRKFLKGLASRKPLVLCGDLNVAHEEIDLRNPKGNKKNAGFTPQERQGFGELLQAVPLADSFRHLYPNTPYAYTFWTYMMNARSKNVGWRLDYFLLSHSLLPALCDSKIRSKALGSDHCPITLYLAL
UniProt Q14872: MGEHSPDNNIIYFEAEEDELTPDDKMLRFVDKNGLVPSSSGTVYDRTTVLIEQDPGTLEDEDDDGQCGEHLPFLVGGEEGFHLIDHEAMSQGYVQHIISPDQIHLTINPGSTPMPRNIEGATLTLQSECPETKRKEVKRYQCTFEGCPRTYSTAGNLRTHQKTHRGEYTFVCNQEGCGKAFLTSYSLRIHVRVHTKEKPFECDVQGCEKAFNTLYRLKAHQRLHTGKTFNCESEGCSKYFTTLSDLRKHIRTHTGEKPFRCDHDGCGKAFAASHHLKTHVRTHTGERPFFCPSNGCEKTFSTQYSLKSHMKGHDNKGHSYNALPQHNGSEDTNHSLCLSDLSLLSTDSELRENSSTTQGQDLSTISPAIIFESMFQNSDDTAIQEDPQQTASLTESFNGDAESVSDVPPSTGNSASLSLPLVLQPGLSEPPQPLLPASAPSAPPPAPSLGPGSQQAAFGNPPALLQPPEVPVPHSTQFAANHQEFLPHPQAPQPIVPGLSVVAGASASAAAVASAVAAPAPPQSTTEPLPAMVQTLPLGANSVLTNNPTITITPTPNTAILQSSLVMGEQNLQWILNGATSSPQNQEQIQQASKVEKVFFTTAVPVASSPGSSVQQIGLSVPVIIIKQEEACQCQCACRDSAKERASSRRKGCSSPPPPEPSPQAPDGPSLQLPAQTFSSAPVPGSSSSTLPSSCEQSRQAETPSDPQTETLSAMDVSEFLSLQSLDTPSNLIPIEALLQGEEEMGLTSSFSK

Biological target: apurinic apyrimidinic endonuclease/redox effector factor 1 (APE/Ref-1) (human (all cell lines of the paper are human; the cells of the co-IP are not named)) (UniProt P27695)
Assay: co-IP; co-immunoprecipitation 'with different treatments'; cells, precipitating antibody and buffer not told

For “Metal-regulatory transcription factor-1 (MTF-1) (from UniProt Q14872 1-753)”, the binding was “binds”.
